Measurements as given in the M2OR odorant receptor database.
Numbering of substitutions follows the chain as printed. This is a selection; strong and weak results do not stand in their true shares. Calls are pooled over several reports, among them a noisy single-well screen. The list shows a part of the results. Some of the results follow.

Chains of the proteins cited; added tags and fusions are not shown. Where a name states a change or a piece, a line headed by the entry shows the natural chain unless it says otherwise. Chains listed by the source or under a name are the forms on record and can include a tag or linker.
UniProt Q8NGP4: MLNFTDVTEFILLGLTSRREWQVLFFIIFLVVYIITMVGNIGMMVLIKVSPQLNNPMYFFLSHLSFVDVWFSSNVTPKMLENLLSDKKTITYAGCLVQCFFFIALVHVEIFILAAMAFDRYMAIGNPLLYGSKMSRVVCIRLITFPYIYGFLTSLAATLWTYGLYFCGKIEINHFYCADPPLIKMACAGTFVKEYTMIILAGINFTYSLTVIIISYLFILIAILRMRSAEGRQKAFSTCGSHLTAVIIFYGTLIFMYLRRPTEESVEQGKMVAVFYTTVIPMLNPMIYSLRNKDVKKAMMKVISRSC
OR5L1, as listed by the source: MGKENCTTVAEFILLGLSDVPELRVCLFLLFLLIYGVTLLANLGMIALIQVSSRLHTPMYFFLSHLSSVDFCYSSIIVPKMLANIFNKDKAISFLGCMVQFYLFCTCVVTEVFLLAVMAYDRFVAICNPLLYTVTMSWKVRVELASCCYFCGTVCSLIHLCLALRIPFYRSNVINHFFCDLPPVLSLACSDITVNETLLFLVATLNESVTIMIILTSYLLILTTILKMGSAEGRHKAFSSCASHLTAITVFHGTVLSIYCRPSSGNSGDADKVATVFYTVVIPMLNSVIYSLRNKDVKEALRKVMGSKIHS

How the values were obtained:
Conditions in all cases: stereoisomer not certain
OR5H6 = system: T1, OR5H6
T1 sequence (whole entry): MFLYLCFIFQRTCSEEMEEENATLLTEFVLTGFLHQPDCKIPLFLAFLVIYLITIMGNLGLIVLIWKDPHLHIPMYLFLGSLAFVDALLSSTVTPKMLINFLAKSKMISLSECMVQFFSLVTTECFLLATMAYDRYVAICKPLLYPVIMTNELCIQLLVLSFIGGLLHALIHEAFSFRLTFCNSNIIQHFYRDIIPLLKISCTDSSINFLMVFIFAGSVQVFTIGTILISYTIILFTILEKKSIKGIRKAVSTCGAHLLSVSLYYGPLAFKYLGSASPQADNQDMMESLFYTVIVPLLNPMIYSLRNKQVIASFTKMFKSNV
How it was run: (§1)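 Transient luciferase assays in mammalian cell lines were common, though methods varied by source. The values come from published papers and their supplementary material, with extra details from the original authors when needed. Responsive refers to a measured signal the original authors judged statistically different from baseline, and non-responsive (inactive) to the remainder.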

OR5I1 (Homo sapiens) = biological target: T2, OR5I1 (Homo sapiens) (UniProt Q13606)
T2 sequence (whole entry): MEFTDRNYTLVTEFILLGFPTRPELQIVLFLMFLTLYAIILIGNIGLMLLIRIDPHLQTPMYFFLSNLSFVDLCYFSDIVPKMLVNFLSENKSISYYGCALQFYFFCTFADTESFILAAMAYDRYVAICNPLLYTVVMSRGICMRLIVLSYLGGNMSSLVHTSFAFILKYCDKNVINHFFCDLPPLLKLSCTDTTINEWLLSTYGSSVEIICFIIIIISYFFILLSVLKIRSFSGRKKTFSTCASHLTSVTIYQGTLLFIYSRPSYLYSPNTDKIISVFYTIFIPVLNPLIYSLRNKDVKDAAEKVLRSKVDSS
How it was run: as §1

OR5J2 (Homo sapiens) = biological target: T3, OR5J2 (Homo sapiens) (UniProt Q8NH18)
T3 sequence (whole entry): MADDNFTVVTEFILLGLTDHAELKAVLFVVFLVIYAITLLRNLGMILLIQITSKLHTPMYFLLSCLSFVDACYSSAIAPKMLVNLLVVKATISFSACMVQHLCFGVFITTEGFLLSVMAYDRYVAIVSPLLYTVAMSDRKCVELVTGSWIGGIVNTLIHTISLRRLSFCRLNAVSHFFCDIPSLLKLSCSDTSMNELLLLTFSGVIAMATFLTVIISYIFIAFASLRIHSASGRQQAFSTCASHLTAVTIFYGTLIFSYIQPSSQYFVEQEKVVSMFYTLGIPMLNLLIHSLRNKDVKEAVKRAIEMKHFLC
How it was run: as §1

OR5K1 (Homo sapiens) = biological target: T4, OR5K1 (Homo sapiens) (UniProt Q8NHB7)
T4 sequence (whole entry): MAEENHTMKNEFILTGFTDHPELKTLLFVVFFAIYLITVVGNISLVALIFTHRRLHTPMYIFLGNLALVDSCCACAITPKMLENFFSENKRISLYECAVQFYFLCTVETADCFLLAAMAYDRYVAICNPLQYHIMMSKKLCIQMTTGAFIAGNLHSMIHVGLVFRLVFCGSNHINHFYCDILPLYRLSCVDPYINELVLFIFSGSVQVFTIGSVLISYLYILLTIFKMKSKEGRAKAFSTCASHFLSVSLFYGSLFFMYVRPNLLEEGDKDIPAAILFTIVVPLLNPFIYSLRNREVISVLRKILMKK
How it was run: as §1

OR5K2 (Homo sapiens) = biological target: T5, OR5K2 (Homo sapiens) (UniProt Q8NHB8)
T5 sequence (whole entry): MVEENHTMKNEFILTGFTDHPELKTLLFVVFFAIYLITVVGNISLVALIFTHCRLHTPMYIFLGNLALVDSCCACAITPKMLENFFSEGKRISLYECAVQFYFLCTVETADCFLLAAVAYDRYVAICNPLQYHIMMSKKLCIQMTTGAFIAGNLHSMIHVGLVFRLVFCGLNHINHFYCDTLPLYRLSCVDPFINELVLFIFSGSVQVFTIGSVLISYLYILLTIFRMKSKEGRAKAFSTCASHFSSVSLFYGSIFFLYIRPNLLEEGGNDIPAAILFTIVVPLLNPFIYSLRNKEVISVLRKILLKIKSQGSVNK
How it was run: as §1

OR5K3 = system: T6, OR5K3
T6 sequence (whole entry): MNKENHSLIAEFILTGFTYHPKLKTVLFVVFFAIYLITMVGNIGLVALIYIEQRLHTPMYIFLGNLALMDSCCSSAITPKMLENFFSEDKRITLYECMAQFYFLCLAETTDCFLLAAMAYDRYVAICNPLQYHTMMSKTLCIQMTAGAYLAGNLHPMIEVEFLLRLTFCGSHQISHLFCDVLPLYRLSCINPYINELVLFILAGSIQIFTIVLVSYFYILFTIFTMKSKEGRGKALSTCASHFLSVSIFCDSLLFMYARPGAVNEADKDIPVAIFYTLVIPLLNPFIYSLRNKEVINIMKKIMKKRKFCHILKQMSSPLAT
How it was run: as §1

OR5K4 = system: T7, OR5K4
T7 sequence (whole entry): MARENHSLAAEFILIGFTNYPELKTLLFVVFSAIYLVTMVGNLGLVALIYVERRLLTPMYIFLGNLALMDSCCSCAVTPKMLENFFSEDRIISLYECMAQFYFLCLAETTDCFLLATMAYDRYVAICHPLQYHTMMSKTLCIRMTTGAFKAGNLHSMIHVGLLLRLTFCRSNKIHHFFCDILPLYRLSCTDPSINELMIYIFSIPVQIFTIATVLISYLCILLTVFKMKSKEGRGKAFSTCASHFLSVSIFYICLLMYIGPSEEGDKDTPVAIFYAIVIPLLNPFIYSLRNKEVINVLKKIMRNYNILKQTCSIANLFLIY
How it was run: as §1

OR5L1 (Homo sapiens) = biological target: T8, OR5L1 (Homo sapiens) (UniProt Q8NGL2)
T8 sequence (whole entry): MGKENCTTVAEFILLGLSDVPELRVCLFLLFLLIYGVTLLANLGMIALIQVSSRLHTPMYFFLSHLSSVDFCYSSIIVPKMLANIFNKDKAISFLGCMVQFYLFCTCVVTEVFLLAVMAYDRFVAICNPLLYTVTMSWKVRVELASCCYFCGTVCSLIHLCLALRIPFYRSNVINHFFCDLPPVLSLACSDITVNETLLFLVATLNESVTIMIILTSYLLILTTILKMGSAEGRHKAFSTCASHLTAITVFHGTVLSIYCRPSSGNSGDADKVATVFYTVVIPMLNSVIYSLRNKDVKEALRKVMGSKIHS
How it was run: as §1

OR5L1 = system: T9, OR5L1
T9 sequence (whole entry): T8 sequence (whole entry) with T240S
How it was run: as §1

OR5M11 (Homo sapiens) = biological target: T10, OR5M11 (Homo sapiens) (UniProt Q96RB7)
T10 sequence (whole entry): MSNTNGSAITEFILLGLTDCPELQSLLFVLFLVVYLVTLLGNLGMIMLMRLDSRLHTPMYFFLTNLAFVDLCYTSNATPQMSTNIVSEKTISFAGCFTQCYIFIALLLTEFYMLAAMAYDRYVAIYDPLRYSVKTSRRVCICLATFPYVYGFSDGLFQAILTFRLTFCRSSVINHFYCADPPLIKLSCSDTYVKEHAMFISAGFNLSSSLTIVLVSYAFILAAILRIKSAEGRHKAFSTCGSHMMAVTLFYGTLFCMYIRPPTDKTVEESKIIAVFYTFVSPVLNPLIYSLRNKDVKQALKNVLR
How it was run: as §1

OR5M1 = system: T11, OR5M1
T11 sequence (whole entry): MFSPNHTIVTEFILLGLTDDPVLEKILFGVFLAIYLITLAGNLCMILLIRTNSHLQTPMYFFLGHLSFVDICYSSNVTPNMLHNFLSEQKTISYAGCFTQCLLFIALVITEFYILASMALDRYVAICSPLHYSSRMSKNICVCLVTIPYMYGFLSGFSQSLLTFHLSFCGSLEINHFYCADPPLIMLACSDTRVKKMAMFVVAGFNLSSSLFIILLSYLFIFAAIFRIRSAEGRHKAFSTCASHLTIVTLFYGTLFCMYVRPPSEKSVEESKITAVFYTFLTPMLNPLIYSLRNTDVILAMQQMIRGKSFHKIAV
How it was run: as §1

OR5M8 (Homo sapiens) = biological target: T12, OR5M8 (Homo sapiens) (UniProt Q8NGP6)
T12 sequence (whole entry): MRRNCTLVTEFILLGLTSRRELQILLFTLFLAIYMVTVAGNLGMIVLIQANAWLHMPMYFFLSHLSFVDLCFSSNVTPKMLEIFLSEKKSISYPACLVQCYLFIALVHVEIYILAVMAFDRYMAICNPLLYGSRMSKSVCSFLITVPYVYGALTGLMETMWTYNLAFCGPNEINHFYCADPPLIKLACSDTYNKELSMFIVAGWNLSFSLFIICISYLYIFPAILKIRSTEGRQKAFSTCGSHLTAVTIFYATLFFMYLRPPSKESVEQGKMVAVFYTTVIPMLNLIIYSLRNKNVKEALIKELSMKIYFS
How it was run: as §1

OR5M9 (Homo sapiens) = biological target: T13, OR5M9 (Homo sapiens) (UniProt Q8NGP3)
T13 sequence (whole entry): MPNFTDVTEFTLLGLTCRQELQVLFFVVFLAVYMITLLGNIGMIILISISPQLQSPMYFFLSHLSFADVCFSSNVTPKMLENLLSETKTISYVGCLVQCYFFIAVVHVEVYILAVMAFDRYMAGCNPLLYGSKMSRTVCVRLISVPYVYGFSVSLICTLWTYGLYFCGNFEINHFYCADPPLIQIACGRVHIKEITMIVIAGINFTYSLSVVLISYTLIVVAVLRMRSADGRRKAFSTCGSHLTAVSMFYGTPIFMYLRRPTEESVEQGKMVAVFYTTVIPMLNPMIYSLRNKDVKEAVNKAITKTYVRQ
How it was run: as §1

OR5MA = system: T14, OR5MA
T14 sequence (whole entry): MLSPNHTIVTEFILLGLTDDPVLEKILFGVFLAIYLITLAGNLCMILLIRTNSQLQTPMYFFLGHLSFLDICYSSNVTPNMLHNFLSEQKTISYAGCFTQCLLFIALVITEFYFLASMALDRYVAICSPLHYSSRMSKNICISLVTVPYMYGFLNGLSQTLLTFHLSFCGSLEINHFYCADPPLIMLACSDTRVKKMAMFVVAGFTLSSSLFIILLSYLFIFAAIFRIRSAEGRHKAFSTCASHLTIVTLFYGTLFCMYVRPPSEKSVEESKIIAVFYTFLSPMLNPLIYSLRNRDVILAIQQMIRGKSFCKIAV
How it was run: as §1

OR5P2 (Homo sapiens) = biological target: T15, OR5P2 (Homo sapiens) (UniProt Q8WZ92)
T15 sequence (whole entry): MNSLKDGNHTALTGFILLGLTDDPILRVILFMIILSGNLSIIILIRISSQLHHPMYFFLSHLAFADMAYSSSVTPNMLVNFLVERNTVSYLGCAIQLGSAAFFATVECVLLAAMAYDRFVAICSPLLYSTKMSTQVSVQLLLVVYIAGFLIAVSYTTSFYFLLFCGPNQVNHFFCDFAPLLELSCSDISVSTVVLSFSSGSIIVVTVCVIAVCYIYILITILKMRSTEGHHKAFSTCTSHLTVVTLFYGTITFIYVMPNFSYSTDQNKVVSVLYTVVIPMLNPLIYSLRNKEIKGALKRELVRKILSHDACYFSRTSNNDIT
How it was run: as §1

OR5P3 (Homo sapiens) = biological target: T16, OR5P3 (Homo sapiens) (UniProt Q8WZ94)
T16 sequence (whole entry): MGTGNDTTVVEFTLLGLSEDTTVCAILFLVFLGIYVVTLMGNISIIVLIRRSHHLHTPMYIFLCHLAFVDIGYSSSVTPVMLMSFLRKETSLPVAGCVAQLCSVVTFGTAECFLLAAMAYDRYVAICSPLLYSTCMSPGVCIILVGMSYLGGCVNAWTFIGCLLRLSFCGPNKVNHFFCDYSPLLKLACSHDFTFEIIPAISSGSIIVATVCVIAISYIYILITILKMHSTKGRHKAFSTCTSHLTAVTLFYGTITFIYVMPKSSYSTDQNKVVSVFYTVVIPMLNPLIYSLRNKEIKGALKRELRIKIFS
How it was run: as §1

OR5R1 = system: T17, OR5R1
T17 sequence (whole entry): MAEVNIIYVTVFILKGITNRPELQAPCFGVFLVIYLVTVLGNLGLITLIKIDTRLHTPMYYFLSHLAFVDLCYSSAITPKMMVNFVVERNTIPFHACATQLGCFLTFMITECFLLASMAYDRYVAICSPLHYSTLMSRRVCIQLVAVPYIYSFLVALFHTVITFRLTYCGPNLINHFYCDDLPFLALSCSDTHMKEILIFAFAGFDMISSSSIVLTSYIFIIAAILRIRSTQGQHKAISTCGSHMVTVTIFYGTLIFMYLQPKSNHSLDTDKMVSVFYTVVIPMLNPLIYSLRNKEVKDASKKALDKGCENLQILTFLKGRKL
How it was run: as §1

OR5T1 (Homo sapiens) = biological target: T18, OR5T1 (Homo sapiens) (UniProt Q8NG75)
T18 sequence (whole entry): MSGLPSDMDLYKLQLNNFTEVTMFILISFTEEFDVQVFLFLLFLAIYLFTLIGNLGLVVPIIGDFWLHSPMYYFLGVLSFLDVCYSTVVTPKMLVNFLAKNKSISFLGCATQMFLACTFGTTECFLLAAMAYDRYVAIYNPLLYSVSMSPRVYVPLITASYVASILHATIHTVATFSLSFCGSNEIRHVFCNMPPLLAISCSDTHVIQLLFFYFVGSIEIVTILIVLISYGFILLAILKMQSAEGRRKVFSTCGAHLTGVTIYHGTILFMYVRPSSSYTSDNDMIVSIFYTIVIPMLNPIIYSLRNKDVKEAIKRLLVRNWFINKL
How it was run: as §1

OR5T1 = system: T19, OR5T1
T19 sequence (whole entry): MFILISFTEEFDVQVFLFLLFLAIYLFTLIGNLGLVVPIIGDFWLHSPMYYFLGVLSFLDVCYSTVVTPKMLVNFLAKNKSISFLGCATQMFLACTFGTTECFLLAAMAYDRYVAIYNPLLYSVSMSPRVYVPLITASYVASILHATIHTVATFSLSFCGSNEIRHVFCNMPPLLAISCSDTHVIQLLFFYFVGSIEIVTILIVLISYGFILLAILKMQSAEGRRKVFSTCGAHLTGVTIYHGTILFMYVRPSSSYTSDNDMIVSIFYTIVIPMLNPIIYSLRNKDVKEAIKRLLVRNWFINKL
How it was run: as §1

OR5M3 (Homo sapiens) = OR5M3 (Homo sapiens) (UniProt Q8NGP4)
How it was run: as §1

Measured: odorant receptor agonist call;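 also: active if original authors judged signal statistically different from baseline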

CCC(C)=O
not listed: OR5M3 (Homo sapiens)
inactive: all other assays above

CCCCOC(C)=O
inactive: all assays above

CCOc1cc(C=O)ccc1O
inactive: OR5K1 (Homo sapiens) | OR5M3 (Homo sapiens)

CS
not listed: OR5M3 (Homo sapiens)
inactive: all other assays above
